This note sets out measurements from patent CN115989242A.

The chains behind the UniProt entries cited, without tags or fusion partners. Where a name states a change or a piece, a line headed by the entry shows the natural chain unless it says otherwise. A line that says so, or that is headed by a name, gives the form on record, which may keep a tag or linker.
间皮素-Fc重组蛋白 (Q13421, form named): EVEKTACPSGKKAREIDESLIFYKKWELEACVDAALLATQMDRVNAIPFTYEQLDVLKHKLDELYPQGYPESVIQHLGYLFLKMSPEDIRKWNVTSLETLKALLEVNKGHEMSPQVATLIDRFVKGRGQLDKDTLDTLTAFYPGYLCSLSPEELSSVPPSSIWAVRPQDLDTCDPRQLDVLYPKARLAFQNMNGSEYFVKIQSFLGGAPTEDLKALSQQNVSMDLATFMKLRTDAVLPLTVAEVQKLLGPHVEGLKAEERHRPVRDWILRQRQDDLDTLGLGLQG

No constants are given. Whether binding was seen depends on the method and setting. Some entries that bind do so weakly or less than the wild type.

Sequences and labels used below:
B1: 抗间皮素scFv-M37 (scFv, not shown: large carriers)
scFv: DIVMTQTPSSLSASVGDRVTITCRASQGISNYLAWFQQKPGKAPKPLIYAASSLQSGVPSKFSGSGSGTDFTLTISNLQPEDFATYICQQYSSYPITFGQGTRLEIKGGGGSGGGGSGGGGSQLQLQESGPGLVKPSETLSLTCAVSGGSISPYYWTWIRQSPGKAMEWMGYIHYSGRTNYNPSLESRATFSVDTSKNQISLKLNSVTAADTAVYYCTKVGDPGLFDYWGPGTLVTVSS
B2: 抗间皮素scFv-M13 (scFv, not shown: large carriers)
scFv: AIRMTQSPSSLSASVGDRVTITCRASQGISNSLAWYQQKPGKAPKLLLYAASRLESGVPSRFSGSGSGTDYTLTISSLQPEDFATYYCQQYYSTPFTFGPGTKLEIKGGGGSGGGGSGGGGSQVQLVQSGAEVKKPGSSVKVSCKTSADTFSANTINWVRQAPGHGLEWMGRIIPSLNIRDYAQEFQGRVTFTADESTNTVYMQLTSLRSEDTAVYYCARDPGSTWSPNQFFPHWGQGTLVTVSS
B3: 抗间皮素scFv-M31 (scFv, not shown: large carriers)
scFv: QSALTQPPSASGSPGQSVTISCTGTSSDIGGYNSVSWYQQHPGKAPKLIIYGVSRRPSGVPDRFSGSKSANTASLTVSGLQAVDEADYYCSSYGGSNNLLFGGGTKLTVLGGGGSGGGGSGGGGSEVHLVESGGGLAQPGGSLRLSCAASGFSFSSSWMAWVRQAPGKGLEWVANIKQDGSSQYYVDSVKGRFTISRDNAKNSLSLQMNSLRAEDTAVYYCARDIWYSIDYWGQGTLVTVSS
B4: 抗间皮素scFv-M12 (scFv, not shown: large carriers)
scFv: AIRLTQSPSLLSASVGDRVTVTCRASQGGGNYLAWYQQKPGKAPKLLIYGASKLQSGVPSRFSGSGSGTEFTLTISSLQPEDFATYYCQQLNSYPVTFGQGTKVDIKGGGGSGGGGSGGGGSEVQLVESGAEVKKPGASVKVSCKASGYTFTTYYIHWVRQAPGQGLEWMGIINPSSGSTTYTQKFQGRVTMTRDTSTSTVYIELSGLRSEDTAVYYCARGETLRGYFDYWGQGTLVTVSS
B5: 抗间皮素scFv-M7 (scFv, not shown: large carriers)
scFv: DIRLTQSPSSLSASLGDRVTITCRASQAISSALAWYQQKPGKAPRLLIYDASTLESGVPSRFSGSGSGTDFTLTISSLQPEDFATYYCQQADSFPLTFGGGTKLEIKGGGGSGGGGSGGGGSQVQLVQSGAEVKKSGESLKISCKGSGYGFGAYWIAWVRQMPGKGLEWMGIIYPGDSRVIYSPYFQGQVTISADKSISTAYLQWSSLKASDTAMYYCARFGGPKFATNWFDIWGQGTTVTVSS
B6: 抗间皮素scFv-M27 (scFv, not shown: large carriers)
scFv: EIVLTQSPGTLSLSPGERATLSCRASQPIVASHLAWYQHKPGQAPRLLIYGASTRAAGIPDRFSGSGSGTDFTLTISRLEPEDFAVYFCQQYGISPFTFGPGTKVDIKGGGGSGGGGSGGGGSQVQLVQSGAEVKKPGESLKISCQGSGYSFTDYWIGWVRQAPGQGLEWMGWITPNNGNTNYAPKFQGRVTLTTDTSTSTAYMELRSLTSDDTAVYFCARRGRNSSGYLYYYSMDVWGQGTTVTVSS
B7: 抗间皮素scFv-M28 (scFv, not shown: large carriers)
scFv: QSALTQPPSASGSPGQSVTISCSGTSSDVGGYNFVSWYQHHPGKAPKLMIYEVSKRPSGVPDRFSGSKSGNTASLTVSGLQAEDEADYYCSSYAGRNNPYLFGTGTKLTVLGGGGSGGGGSGGGGSQLQLQESGAEVKKPGSSVKVSCKASGGTFSSYAISWVRQAPGQGLEWMGGIIPIFGTANYAQKFQGRVTITADESTSTAYMELSSLRSEDTAVYYCARDLGGYSYGHGLDYWGQGTLVTVSS
B8: 抗间皮素scFv-M6 (scFv, not shown: large carriers)
scFv: EIVMTQSPATLSLSPGERATLSCRASQSIGNSLAWYQQKPGQAPRLLIYDVSNRATGIPARFSGSGSGTDFTLTISSLEPEDFAVYYCQHRYSWPLTFGGGTKVEIKGGGGSGGGGSGGGGSQVQLVQSGGGLVKPGGSLRLSCAASGFTFSDYYMSWIRQAPGKGLEWVSYISSSGSTIYYADSVKGRFTISRDNAKNSLYLQMNSLRAEDTAVYYCARDGYRTHNWFDPWGQGTLVTVSS
B9: 抗间皮素scFv-M8 (scFv, not shown: large carriers)
scFv: DIQLTQSPSSLSASVGDRVTITCRASQSISSSLNWYQQKPGKAPKLLIYAASSLQSGVPSRFSGSGSGTDFTLTISSLQPEDFATYSCQQSYSTPLTFGGGTKVEIKGGGGSGGGGSGGGGSQVHLVESGGGVVQPGRSLRVSCAASGFTFSGYAMYWVRQAPGKGLEYVSAITTNGGSTNYADSVKGRFTISRDNSKNTLYLQMSSLRAGDTAVYYCARGAPGYRGYYMDVWGKGTTVTVSS
B10: 抗间皮素scFv-M32 (scFv, not shown: large carriers)
scFv: DIRMTQSPSSLSASVGDRVTVTCQASEDINNSLNWYQQKPGKAPQLLIYDASDLETGVPSRFSGRGSGRDFTLTISSLQPEDFATYYCQQLNSYPLTFGGGTKLEIKGGGGSGGGGSGGGGSQVQLVQSGAEVKKPGASVKVSCKASGFTFIGYYLHWVRQAPGQGLEWMGIINPSGGRTSMAQKFQGRVSMTTDTSTGTVYLDLGRLGSDDTAVYYCARADNWNAGSMDVWGNGTTVTVSS
B11: 抗间皮素scFv-M20 (scFv, not shown: large carriers)
scFv: AIQMTQSPSSLSASVGNRVTITCRASQGISSAVAWYQQKPGKPPKLLISYASSLESGVPSRFSGSGSGTDFSLTISSLQPEDFATYFCQQFNSYPLTFGGGTKVEIKGGGGSGGGGSGGGGSQVQLVQSGAEVRKPGESLKISCKGSGYSFRDSWIAWVRQMPGQGLEWMGIIFPGDSNPIYSPSFQGQVTISADTSISTTFLQWRSLKASDSAIYYCARHAAWGAGWFDPWGQGTLVTVSS
B12: 抗间皮素scFv-M24 (scFv, not shown: large carriers)
scFv: QPVLTQPPSASGTPGQRVTISCSGSSSNIGSNYVYWYQQFPGTAPKLLIYMNNQRPSGVPDRFSGSKSGTSASLAISGLRSEDEADYYCAARDDSLSGYVTFGGGTKLTVLGGGGSGGGGSGGGGSEVHLVESGGGLVQPGGSLRLSCAASGFTFSSYAMSWVRQAPGKGLEWVSAISGSGGSTYYADSVKGRFTISRDNSKNTLYLQMNSLKTEDTAVYYCTRGVATFDYWGQGTLVTVSS

For the experiment, the target named is 间皮素-Fc重组蛋白 (human) (UniProt Q13421). Description: FACS staining of CAR T cells with mesothelin-Fc recombinant protein.
As for B1, the binding result was “binds”.

For the molecule B2, the binding entry is given as “binds”.

As for B3, the binding entry is “binds”.

As to B4, the binding result was “binds”.

Regarding B5, the binding entry is “binds”.

As to B6, the binding result is listed as “binds”.

Turning to B7, the binding result is listed as “binds”.

On to B8, for which the binding result is reported as “binds”.

B9: the binding result is given as “binds”.

As for B10, the binding entry is “binds”.

As for B11, the binding result is “binds”.

For the molecule B12, the binding result was “binds”.
